Experimental data reported in article doi:10.1101/2020.10.14.339929.
Results are given in words; binding and its absence hold for the method and conditions named. In cells and extracts the contact can be indirect. Here binding means that the protein was enriched with, or labelled near, the bait; the list need not be complete.

Protein sequences, listed by entry. Tags and fused reporters are not part of them.
UniProt Q01094: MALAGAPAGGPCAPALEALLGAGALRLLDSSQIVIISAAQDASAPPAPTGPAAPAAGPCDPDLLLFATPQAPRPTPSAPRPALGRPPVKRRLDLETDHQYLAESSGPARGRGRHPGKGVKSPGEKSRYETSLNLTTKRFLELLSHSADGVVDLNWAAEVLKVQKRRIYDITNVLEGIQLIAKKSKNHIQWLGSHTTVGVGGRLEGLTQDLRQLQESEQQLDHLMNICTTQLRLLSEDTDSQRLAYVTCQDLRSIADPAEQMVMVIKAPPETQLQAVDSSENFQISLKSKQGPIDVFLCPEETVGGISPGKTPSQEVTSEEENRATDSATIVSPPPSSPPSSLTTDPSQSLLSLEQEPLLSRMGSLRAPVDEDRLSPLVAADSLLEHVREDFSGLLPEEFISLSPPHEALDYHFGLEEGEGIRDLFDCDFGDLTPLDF
UniProt O09106: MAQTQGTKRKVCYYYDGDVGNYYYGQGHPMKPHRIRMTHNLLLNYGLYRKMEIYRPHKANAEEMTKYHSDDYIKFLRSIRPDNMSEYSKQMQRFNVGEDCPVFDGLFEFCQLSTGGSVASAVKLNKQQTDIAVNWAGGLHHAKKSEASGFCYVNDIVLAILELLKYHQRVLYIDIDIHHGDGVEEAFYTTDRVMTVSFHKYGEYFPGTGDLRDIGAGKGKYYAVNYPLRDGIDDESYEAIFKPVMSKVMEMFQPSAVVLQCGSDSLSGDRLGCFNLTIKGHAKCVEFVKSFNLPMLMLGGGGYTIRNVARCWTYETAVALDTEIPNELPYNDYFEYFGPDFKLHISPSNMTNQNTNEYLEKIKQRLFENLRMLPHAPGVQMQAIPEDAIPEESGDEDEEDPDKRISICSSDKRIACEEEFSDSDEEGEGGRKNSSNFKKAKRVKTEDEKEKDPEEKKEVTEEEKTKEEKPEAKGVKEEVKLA

B1: HDAC6 (enzyme, UniProt Q9Z2V5 1-1149)
chain: MTSTGQDSSTRQRKSRHNPQSPLQESSATLKRGGKKCAVPHSSPNLAEVKKKGKMKKLSQPAEEDLVVGLQGLDLNPETRVPVGTGLVFDEQLNDFHCLWDDSFPESPERLHAIREQLILEGLLGRCVSFQARFAEKEELMLVHSLEYIDLMETTQYMNEGELRVLAETYDSVYLHPNSYSCACLATGSVLRLVDALMGAEIRNGMAVIRPPGHHAQHNLMDGYCMFNHLAVAARYAQKKHRIQRVLIVDWDVHHGQGTQFIFDQDPSVLYFSIHRYEHGRFWPHLKASNWSTIGFGQGQGYTINVPWNQTGMRDADYIAAFLHILLPVASEFQPQLVLVAAGFDALHGDPKGEMAATPAGFAHLTHLLMGLAGGKLILSLEGGYNLRALAKGVSASLHTLLGDPCPMLESCVVPCASAQTSIYCTLEALEPFWEVLERSVETQEEDEVEEAVLEEEEEEGGWEATALPMDTWPLLQNRTGLVYDEKMMSHCNLWDNHHPETPQRILRIMCHLEEVGLAARCLILPARPALDSELLTCHSAEYVEHLRTTEKMKTRDLHREGANFDSIYICPSTFACAKLATGAACRLVEAVLSGEVLNGIAVVRPPGHHAEPNAACGFCFFNSVAVAARHAQIIAGRALRILIVDWDVHHGNGTQHIFEDDPSVLYVSLHRYDRGTFFPMGDEGASSQVGRDAGIGFTVNVPWNGPRMGDADYLAAWHRLVLPIAYEFNPELVLISAGFDAAQGDPLGGCQVTPEGYAHLTHLLMGLAGGRIILILEGGYNLASISESMAACTHSLLGDPPPQLTLLRPPQSGALVSISEVIQVHRKYWRSLRLMKMEDKEECSSSRLVIKKLPPTASPVSAKEMTTPKGKVPEESVRKTIAALPGKESTLGQAKSKMAKAVLAQGQSSEQAAKGTTLDLATSKETVGGATTDLWASAAAPENFPNQTTSVEALGETEPTPPASHTNKQTTGASPLQGVTAQQSLQLGVLSTLELSREAEEAHDSEEGLLGEAAGGQDMNSLMLTQGFGDFNTQDVFYAVTPLSWCPHLMAVCPIPAAGLDVSQPCKTCGTVQENWVCLTCYQVYCSRYVNAHMVCHHEASEHPLVLSCVDLSTWCYVCQAYVHHEDLQDVKNAAHQNKFGEDMPHSH

Biological target: human E2F1 coupled to a FLAG tag (pCMV-hE2F1-FLAG) (human) (UniProt Q01094)
Test: affinity purification with mass spectrometry

Molecule	binding
HDAC1 (from UniProt O09106 1-482) (enzyme)	binds
B1	binds
